{"source": "paper PMC4917648", "about": "“praja2 regulates KSR1 stability and mitogenic signaling” (Cell Death & Disease, 2016)", "binders": {"B1": {"name": "praja2 (endogenous) (natural protein, human (endogenous in HEK293), UniProt O43164 1-708, looked up)", "chain": "MSQYTEKEPAAMDQESGKAVWPKPAGGYQTITGRRYGRRHAYVSFKPCMTRHERSLGRAGDDYEVLELDDVPKENSSGSSPLDQVDSSLPSEPIFEKSETEIPTCGSALNQTTESSQSFVAVHHSEEGRDTLGSSTNLHNHSEGEYIPGACSASSVQNGIALVHTDSYDPDGKHGEDNDHLQLSAEVVEGSRYQESLGNTVFELENREAEAYTGLSPPVPSFNCEVRDEFEELDSVPLVKSSAGDTEFVHQNSQEIQRSSQDEMVSTKQQNNTSQERQTEHSPEDAACGPGHICSEQNTNDREKNHGSSPEQVVRPKVRKLISSSQVDQETGFNRHEAKQRSVQRWREALEVEESGSDDLLIKCEEYDGEHDCMFLDPPYSRVITQRETENNQMTSESGATAGRQEVDNTFWNGCGDYYQLYDKDEDSSECSDGEWSASLPHRFSGTEKDQSSSDESWETLPGKDENEPELQSDSSGPEEENQELSLQEGEQTSLEEGEIPWLQYNEVNESSSDEGNEPANEFAQPAFMLDGNNNLEDDSSVSEDLDVDWSLFDGFADGLGVAEAISYVDPQFLTYMALEERLAQAMETALAHLESLAVDVEVANPPASKESIDGLPETLVLEDHTAIGQEQCCPICCSEYIKDDIATELPCHHFFHKPCVSIWLQKSGTCPVCRRHFPPAVIEASAAPSSEPDPDAPPSNDSIAEAP"}, "B2": {"name": "flag-praja2 (wild type) (protein, UniProt O43164 1-708)", "chain": "B1 chain"}, "B3": {"name": "in vitro-translated, [35S]-labeled KSR1 (protein, UniProt Q8IVT5 1-923)", "chain": "MDRAALRAAAMGEKKEGGGGGDAAAAEGGAGAAASRALQQCGQLQKLIDISIGSLRGLRTKCAVSNDLTQQEIRTLEAKLVRYICKQRQCKLSVAPGERTPELNSYPRFSDWLYTFNVRPEVVQEIPRDLTLDALLEMNEAKVKETLRRCGASGDECGRLQYALTCLRKVTGLGGEHKEDSSWSSLDARRESGSGPSTDTLSAASLPWPPGSSQLGRAGNSAQGPRSISVSALPASDSPTPSFSEGLSDTCIPLHASGRLTPRALHSFITPPTTPQLRRHTKLKPPRTPPPPSRKVFQLLPSFPTLTRSKSHESQLGNRIDDVSSMRFDLSHGSPQMVRRDIGLSVTHRFSTKSWLSQVCHVCQKSMIFGVKCKHCRLKCHNKCTKEAPACRISFLPLTRLRRTESVPSDINNPVDRAAEPHFGTLPKALTKKEHPPAMNHLDSSSNPSSTTSSTPSSPAPFPTSSNPSSATTPPNPSPGQRDSRFNFPAAYFIHHRQQFIFPVPSAGHCWKCLLIAESLKENAFNISAFAHAAPLPEAADGTRLDDQPKADVLEAHEAEAEEPEAGKSEAEDDEDEVDDLPSSRRPWRGPISRKASQTSVYLQEWDIPFEQVELGEPIGQGRWGRVHRGRWHGEVAIRLLEMDGHNQDHLKLFKKEVMNYRQTRHENVVLFMGACMNPPHLAIITSFCKGRTLHSFVRDPKTSLDINKTRQIAQEIIKGMGYLHAKGIVHKDLKSKNVFYDNGKVVITDFGLFGISGVVREGRRENQLKLSHDWLCYLAPEIVREMTPGKDEDQLPFSKAADVYAFGTVWYELQARDWPLKNQAAEASIWQIGSGEGMKRVLTSVSLGKEVSEILSACWAFDLQERPSFSLLMDMLEKLPKLNRRLSHPGHFWKSADINSSKVVPRFERFGLGVLESSNPKM", "modifications": "[35S]-labeled methionine"}}, "key": {"[1]": {"target": "T1, kinase suppressor of Ras 1 (KSR1), endogenous (human (endogenous in HEK293)) (UniProt Q8IVT5)", "T1 sequence": "B3 chain", "assay": "co-IP; cells pretreated with synthetic peptides (1 μM; scrambled-Flag or go-onERK-Flag); lysates immunoprecipitated for KSR1, blotted for praja2 and KSR1"}, "[2]": {"target": "T1, kinase suppressor of Ras 1 (KSR1), endogenous (human (endogenous in HEK293))", "assay": "co-IP; endogenous KSR1 and praja2 complex isolated from lysates (2 mg) of HEK293 cells"}, "[3]": {"target": "T2, myc-KSR1 (UniProt Q8IVT5)", "T2 sequence": "B3 chain", "assay": "co-IP; HEK293 cells transiently transfected with flag-praja2 constructs, MG132 (10 μM) for 12 h before harvesting; lysates immunoprecipitated with anti-KSR1, blotted with anti-KSR1 and anti-flag"}, "[4]": {"target": "T3, GST-praja2 (full-length praja2 fused to the C-terminus of GST) (UniProt O43164)", "T3 sequence": "B1 chain", "assay": "pull-down; 20 μl of GST-praja2 beads with in vitro-translated [35S]-labeled KSR1 in 200 μl lysis buffer (150 mM NaCl, 50 mM Tris-HCl pH 7.5, 1 mM EDTA, 0.5% triton X-100), 4 °C overnight; washes with 0.4 M NaCl; autoradiography; only the target purified"}}, "note": "Results are given in words; binding and its absence hold for the method and conditions named. In cells and extracts the contact can be indirect. Some binding calls cover weakened binding; strength is not graded here. For some of these results: Tags and fused reporters may be left off the sequences shown.", "data": [{"binder": "B1", "values": [{"measurement": "binding", "setting": "[1]", "result": "binds"}, {"measurement": "binding", "setting": "[2]", "result": "binds"}]}, {"binder": "B2", "values": [{"measurement": "binding", "setting": "[3]", "result": "binds"}]}, {"binder": "B3", "values": [{"measurement": "binding", "setting": "[4]", "result": "binds"}]}]}
